Data published in PubChem BioAssay AID274 (DTP/NCI, 2004).
The list does not hold the whole screen: it gathers tests that were run many times, whatever their T/C, doses with no T/C, and many T/C values between a quarter and a half above the control. Further doses and runs are listed elsewhere. T/C gives the treated animals as a percentage of the vehicle group. Some entries give survivors of the animals treated and no T/C: the source holds a T/C of zero for them, seemingly a mark for toxic or unscored doses. Some doses without a T/C left all or most animals alive at the check, yet need not have been tolerated: the source hardly ever lists a survival T/C far under the control, and the zero likely stands for such cases as well. Survivors were counted at the toxicity check, usually on the fifth day, unless a day is given; later deaths do not show. Schedule codes are those of the source, taken here to give the interval after Q, in days (D) or hours (H), and the number of doses after X. Marks such as (2×) count equal records among those shown. Some doses were run more than once; their values stand side by side, smallest first. Where survival is the endpoint, this PubChem deposit counts one and a half times the control or more as active, and values a quarter to a half above the control carry no call in these data; other NCI protocols may use other cut-offs. Some T/C values carry the count of animals alive at the toxicity check (mostly the fifth day); where none is given, no animal had died by that day.

Tested on: BDF1 mice, Lewis lung carcinoma iv, survival T/C
Test: NCI In Vivo Anticancer Drug Screen. Data for tumor model Lewis Lung Carcinoma (intravenous) in B6D2F1 (BDF1) mice
Settings: T/C endpoint: median survival time, higher T/C = longer survival
Procedure: The antitumor activity of compounds was measured in mice bearing transplantable tumors. Survival or tumor size were measured and the results are expressed as the measurement made in the treated group (T) divided by the measurement made in the vehicle treated control group (C). The tumor model used in this assay is Lewis Lung Carcinoma (intravenous) in B6D2F1 (BDF1) mice

[1] = dose: 100.0 mg/kg/injection, schedule: Q01DX009 (ip), vehicle: saline with Tween-80
[2] = dose: 200.0 mg/kg/injection, schedule: Q01DX009 (ip), vehicle: saline with Tween-80
[3] = dose: 25.0 mg/kg/injection, schedule: Q01DX009 (ip), vehicle: saline with Tween-80
[4] = dose: 50.0 mg/kg/injection, schedule: Q01DX009 (ip), vehicle: saline with Tween-80
[5] = dose: 12.0 mg/kg/injection, schedule: Q01DX009 (ip), vehicle: saline
[6] = dose: 400.0 mg/kg/injection, schedule: Q01DX009 (ip), vehicle: Klucel (hydroxypropylcellulose) (HPC)
[7] = dose: 25.0 mg/kg/injection, schedule: Q01DX009 (ip), vehicle: saline
[8] = dose: 50.0 mg/kg/injection, schedule: Q01DX009 (ip), vehicle: saline
[9] = dose: 2.0 mg/kg/injection, schedule: Q01DX009 (ip), vehicle: saline
[10] = dose: 4.0 mg/kg/injection, schedule: Q01DX009 (ip), vehicle: saline
[11] = dose: 400.0 mg/kg/injection, schedule: Q01DX009 (ip), vehicle: saline with Tween-80

SMILES: S=P(N1CC1)(N1CC1)N1CC1
- survivor count (dose: 8.0 mg/kg/injection, schedule: Q01DX009 (ip), vehicle: saline with Tween-80): 9 of 10
- survivor count (dose: 16.0 mg/kg/injection, schedule: Q01DX009 (ip), vehicle: saline with Tween-80): 10 of 10 (2×)

SMILES: O=C(NCCCCCCNC(=O)N1CC1)N1CC1
- T/C (dose: 4.8 mg/kg/injection, schedule: Q01DX009 (ip), vehicle: saline): 134 % of control
- survivor count (dose: 9.6 mg/kg/injection, schedule: Q01DX009 (ip), vehicle: saline): 10 of 10

SMILES: CC(=O)CC(C)=O.CC(=O)CC(C)=O.O=N[O-].O=N[O-].[Co]
- survivor count [1]: 6 of 10
- survivor count [2]: 0 of 10

SMILES: c1ccc2c(c1)nnn1c3cnccc3nc21
- survivor count [3]: 0 of 10
- survivor count [4]: 0 of 10

SMILES: O=C(CCN1CC1)OCCOC(=O)CCN1CC1
- T/C [5]: 128 % of control

SMILES: O=C(NCCCCCCCCCCNC(=O)N1CC1)N1CC1
- survivor count [5]: 9 of 10

SMILES: CCC1OCC(C(Cl)CCl)O1 (configuration not stated)
- survivor count [6]: 1 of 10

SMILES: CC(=O)NC(C=O)OCC=O (configuration not stated)
- survivor count (dose: 200.0 mg/kg/injection, schedule: Q01DX009 (ip), vehicle: water): 8 of 10

SMILES: OCCOCCN1CCN(CCCN2c3ccccc3Sc3ccc(C(F)(F)F)cc32)CC1
- survivor count [7]: 9 of 10
- survivor count [8]: 7 of 10

SMILES: CCCCCCCCCCCCCCCCS(=O)CC(O)COC(=O)c1ccc(C(=O)OCC(O)CS(=O)CCCCCCCCCCCCCCCC)cc1 (configuration not stated)
- T/C (dose: 12.5 mg/kg/injection, schedule: Q01DX009 (ip), vehicle: saline + alcohol): 130 % of control
- survivor count (dose: 25.0 mg/kg/injection, schedule: Q01DX009 (ip), vehicle: saline + Tween-80 + alcohol): 10 of 10
- T/C (dose: 50.0 mg/kg/injection, schedule: Q01DX009 (ip), vehicle: saline + alcohol): 128 % of control [9 of 10 alive]
- survivor count (dose: 400.0 mg/kg/injection, schedule: Q01DX009 (ip), vehicle: saline + Tween-80 + alcohol): 5 of 10
- survivor count (dose: 400.0 mg/kg/injection, schedule: Q01DX009 (ip), vehicle: saline + alcohol): 6 of 10

SMILES: N[C@H](C(=O)O)[C@@H]1CC(Cl)=NO1
- T/C (dose: 0.5 mg/kg/injection, schedule: Q01DX009 (ip), vehicle: saline): 129 % of control
- T/C (dose: 1.0 mg/kg/injection, schedule: Q01DX009 (ip), vehicle: saline): 134 % of control
- T/C [9]: 137 % of control
- T/C [10]: 147 % of control
- T/C (dose: 8.0 mg/kg/injection, schedule: Q01DX009 (ip), vehicle: saline): 147 % of control
- survivor count (dose: 16.0 mg/kg/injection, schedule: Q01DX009 (ip), vehicle: saline): 10 of 10

SMILES: CC1(CO)C(O)CCC2(C)C1CCC1CC3CC12CCC3(O)CO (configuration not stated)
- survivor count (dose: 18.75 mg/kg/injection, schedule: Q01DX009 (ip), vehicle: saline with Tween-80): 10 of 10
- survivor count (dose: 37.5 mg/kg/injection, schedule: Q01DX009 (ip), vehicle: saline with Tween-80): 10 of 10
- T/C [4]: 125 % of control [9 of 10 alive]
- survivor count (dose: 75.0 mg/kg/injection, schedule: Q01DX009 (ip), vehicle: saline with Tween-80): 10 of 10
- T/C [1]: 126 % of control
- survivor count (dose: 150.0 mg/kg/injection, schedule: Q01DX009 (ip), vehicle: saline with Tween-80): 9 of 10

SMILES: CN(Cc1cnc2nc(N)nc(N)c2n1)c1ccc(C(=O)N[C@@H](CCC(=O)O)C(=O)O)cc1
- survivor count (dose: 1.8 mg/kg/injection, schedule: Q01DX021 (ip), vehicle: sodium bicarbonate): 8 of 8
- T/C (dose: 2.0 mg/kg/injection, schedule: Q01DX009 (ip), vehicle: sodium bicarbonate): 147 % of control
- survivor count (dose: 2.5 mg/kg/injection, schedule: Q04DX003 (ip), vehicle: sodium bicarbonate): 3 of 8 and 8 of 8
- survivor count (dose: 4.0 mg/kg/injection, schedule: Q01DX009 (ip), vehicle: sodium bicarbonate): 10 of 10
- survivor count (dose: 5.0 mg/kg/injection, schedule: Q04DX003 (ip), vehicle: sodium bicarbonate): 1 of 8 and 8 of 8
- survivor count (dose: 8.0 mg/kg/injection, schedule: Q01DX009 (ip), vehicle: sodium bicarbonate): 9 of 10 and 10 of 10
- survivor count (dose: 10.0 mg/kg/injection, schedule: Q04DX003 (ip), vehicle: sodium bicarbonate): 3 of 8 and 8 of 8
- survivor count (dose: 16.0 mg/kg/injection, schedule: Q01DX009 (ip), vehicle: sodium bicarbonate): 9 of 10
- T/C (dose: 18.0 mg/kg/injection, schedule: Q04DX003 (ip), vehicle: sodium bicarbonate): 133 and 139 % of control
- T/C (dose: 18.0 mg/kg/injection, schedule: Q04DX006 (ip), vehicle: sodium bicarbonate): 128 % of control
- survivor count (dose: 20.0 mg/kg/injection, schedule: Q04DX003 (ip), vehicle: sodium bicarbonate): 2 of 8 and 8 of 8
- T/C (dose: 30.0 mg/kg/injection, schedule: Q04DX003 (ip), vehicle: sodium bicarbonate, evaluated on day 60): 87 and 123 % of control
- T/C (dose: 30.0 mg/kg/injection, schedule: Q04DX003 (ip), vehicle: sodium bicarbonate, evaluated on day 90): 125 and 165 % of control
- survivor count (dose: 30.0 mg/kg/injection, schedule: Q04DX003 (ip), vehicle: sodium bicarbonate): 3 of 8
- T/C (dose: 30.0 mg/kg/injection, schedule: Q04DX003 (iv), vehicle: sodium bicarbonate): 135 % of control
- survivor count (dose: 50.0 mg/kg/injection, schedule: Q04DX003 (ip), vehicle: sodium bicarbonate): 8 of 8
- survivor count (dose: 50.0 mg/kg/injection, schedule: Q04DX003 (iv), vehicle: sodium bicarbonate): 8 of 8

SMILES: O=S(=O)(N=N/C=C1\C=CC=CN1O)c1cccs1
- survivor count [2]: 2 of 6
- survivor count [11]: 2 of 10

SMILES: [CH3][Sn]([CH3])([Cl])[S]CCN
- survivor count [8]: 5 of 10

SMILES: CN(C)c1nc(N(C)C)nc(N(C)C)n1
- T/C [3]: 125 % of control
- survivor count (dose: 300.0 mg/kg/injection, schedule: Q04DX003 (ip), vehicle: Klucel (hydroxypropylcellulose) (HPC)): 7 of 7
- survivor count [11]: 9 of 10
- survivor count (dose: 450.0 mg/kg/injection, schedule: Q04DX003 (ip), vehicle: Klucel (hydroxypropylcellulose) (HPC)): 1 of 7
- survivor count (dose: 675.0 mg/kg/injection, schedule: Q04DX003 (ip), vehicle: Klucel (hydroxypropylcellulose) (HPC)): 0 of 7

SMILES: Cc1cc(NCCCCCCCNc2cc(C)nc3cc(N)ccc23)c2ccc(N)cc2n1
- survivor count [3]: 10 of 10

SMILES: Clc1cc(Cl)nc(N2CC2)n1
- T/C (dose: 1.25 mg/kg/injection, schedule: Q01DX009 (ip), vehicle: saline): 133 % of control
- survivor count (dose: 2.5 mg/kg/injection, schedule: Q01DX009 (ip), vehicle: saline with Tween-80): 7 of 10
- survivor count (dose: 2.5 mg/kg/injection, schedule: Q01DX009 (ip), vehicle: saline): 10 of 10
- survivor count (dose: 5.0 mg/kg/injection, schedule: Q01DX009 (ip), vehicle: saline): 5 of 9
- survivor count (dose: 10.0 mg/kg/injection, schedule: Q01DX009 (ip), vehicle: saline with Tween-80): 3 of 10

SMILES: S=C(Nc1ccc(Cl)c(Cl)c1)N1c2ccccc2-n2cccc2C1c1cccnc1 (configuration not stated)
- survivor count [6]: 8 of 10

SMILES: CO[C@@]12[C@H](COC(N)=O)C3=C(C(=O)C(C)=C(N)C3=O)N1C[C@@H]1N[C@@H]12
- survivor count [9]: 10 of 10
- survivor count [10]: 10 of 10

SMILES: CCS(=O)(=O)OCCCCOS(=O)(=O)CC
- T/C (dose: 12.5 mg/kg/injection, schedule: Q01DX009 (ip), vehicle: saline): 133 % of control
- survivor count [7]: 7 of 10
- survivor count [8]: 10 of 10
- survivor count (dose: 100.0 mg/kg/injection, schedule: Q01DX009 (ip), vehicle: saline): 8 of 10
- survivor count (dose: 200.0 mg/kg/injection, schedule: Q01DX009 (ip), vehicle: saline): 2 of 10

SMILES: NNC(=S)N/N=C/c1ccccn1
- T/C [7]: 145 % of control
- survivor count [8]: 5 of 10
